Results deposited as PubChem BioAssay AID1259425 (University of Nebraska Medical Center, 2018)
Screen: 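Find knockdowns that reproduce the gene expression pattern seen when KSR1 is lost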 (primary screen). System: HCT116 human colon cancer cells. Reagents: siRNA pool against human genes, 50 nM siRNA. Measured: 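mRNA of six signature genes measured together by branched-DNA assay after 50 nM siRNA pool, blank removed, divided by geometric mean of two housekeeping genes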. Scale: BNIP3L mRNA: higher = more BNIP3L transcript after knockdown; NDRG1 mRNA: higher = more NDRG1 transcript after knockdown; BNIP3 mRNA: higher = more BNIP3 transcript after knockdown; ALDOC mRNA: higher = more ALDOC transcript after knockdown; ACSL5 mRNA: higher = more ACSL5 transcript after knockdown.
The whole screen tested about 14,000 reagents; this is a random part of them. Not given: the time to read-out.

"BNIP3L mRNA, set 1","NDRG1 mRNA, set 1","BNIP3 mRNA, set 1","ALDOC mRNA, set 1","ACSL5 mRNA, set 1",Gene
0.0905,0.113,0.373,0.0264,0.132,CDCA4
0.101,0.215,0.354,0.0264,0.201,CUL4B
0.155,0.27,0.225,0.0767,0.21,TMC8
0.167,0.745,0.198,0.0714,0.51,MXRA8
0.103,0.159,0.295,0.0226,0.0976,NOTCH3
0.144,0.475,0.342,0.0467,0.277,TRAPPC2L
0.112,0.137,0.162,0.0119,0.133,SFTPA1
0.0859,0.664,0.279,0.0174,0.175,COLGALT2
0.483,0.596,0.358,0.0669,0.17,SMR3A
0.0994,0.132,0.363,0.00602,0.315,IRAK1
0.173,0.0837,0.279,0.0211,0.137,LGALS4
0.117,0.242,0.249,0.024,0.207,MRPS12
0.122,0.31,0.286,0.0597,0.184,CCIN
0.156,0.271,0.606,0.0377,0.103,CTH
0.0705,0.46,0.244,0.0189,0.178,AQP7
0.136,0.188,0.428,0.0257,0.0921,MAP1A
0.0537,0.117,0.326,0.00805,0.0729,ADCY8
0.17,0.215,0.383,0.0291,0.262,FAM184A
0.114,0.529,0.286,0.0128,0.0751,RHOV
0.0991,0.158,0.355,0.028,0.127,SYN1
0.057,0.0743,0.274,0.0185,0.106,CPVL
0.0964,0.159,0.158,0.0142,0.161,BABAM2
0.145,0.21,0.329,0.0299,0.205,MT2A
0.137,0.15,0.402,0.03,0.235,KIAA1143
0.0847,0.246,0.278,0.0227,0.123,F13B
0.206,0.161,0.165,0.0268,0.291,ARHGAP22
0.066,0.2,0.224,0.0317,0.165,VDAC2
0.229,0.142,0.367,0.0516,0.0707,SLC7A4
0.206,0.158,0.458,0.0397,0.121,EPC2
0.0577,0.144,0.227,0.00779,0.173,DIMT1
0.0731,0.0781,0.252,0.0224,0.108,SH3BP5
0.386,0.285,0.261,0.153,0.61,EVA1A
0.113,2.28,0.293,0.0158,0.39,EIF2S2
0.159,0.135,0.313,0.0128,0.162,KRR1
0.062,0.231,0.341,0.0135,0.166,CNTN5
0.0909,0.182,0.515,0.0437,0.114,KANK2
0.055,0.348,0.272,0.0107,0.254,VPREB1
0.146,0.186,0.309,0.011,0.193,HSPA1B
0.0788,0.129,0.329,0.0277,0.241,COL5A2
0.166,0.295,0.403,0.0395,0.2,ZNF17
0.158,0.162,0.346,0.0138,0.237,AGPAT1
0.202,0.311,0.518,0.0544,0.414,EPHB3
0.0453,0.285,0.209,0.0158,0.22,CYP11B1
0.056,0.0955,0.339,0.00583,0.158,SCFD1
0.254,0.161,0.342,0.108,0.124,MICALL2
0.218,0.178,0.243,0.0462,0.156,EFNB3
0.0674,0.139,0.253,0.00632,0.176,CNKSR2
0.127,0.239,0.191,0.0484,0.161,GPR65
0.0609,0.273,0.209,0.00648,0.26,OGDH
0.0952,0.0927,0.223,0.0511,0.14,CCL8
0.0716,0.378,0.271,0.0317,0.251,AZGP1
0.164,0.216,0.338,0.0362,0.236,CENPO
0.149,0.173,0.32,0.0409,0.35,RAB11B
0.0953,0.261,0.353,0.0443,0.155,TBC1D24
0.0805,0.212,0.298,0.024,0.217,RAB3GAP2
0.0439,0.116,0.218,0.0053,0.172,HOXA4
0.183,0.31,0.359,0.118,0.296,INTS12
0.109,0.13,0.275,0.0191,0.181,HOXC8
0.04,0.0547,0.23,0.00893,0.111,CREM
0.306,0.251,0.71,0.0717,0.229,TAAR1
0.0447,0.226,0.283,0.0367,0.129,AIG1
0.14,0.551,0.338,0.0158,0.124,HIVEP1
0.257,0.336,0.386,0.0993,0.297,B3GNT5
